Percent effect of library compounds

By UniProt entry, the sequences of proteins in these tests, tags left out.
UniProt P9WPC5, whole entry: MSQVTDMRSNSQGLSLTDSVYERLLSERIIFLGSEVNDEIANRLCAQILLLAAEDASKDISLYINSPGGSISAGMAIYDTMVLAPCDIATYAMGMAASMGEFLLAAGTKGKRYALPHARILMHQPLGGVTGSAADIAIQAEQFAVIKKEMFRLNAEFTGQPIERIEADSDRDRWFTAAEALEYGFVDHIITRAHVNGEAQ
UniProt P9WPC3, whole entry partner: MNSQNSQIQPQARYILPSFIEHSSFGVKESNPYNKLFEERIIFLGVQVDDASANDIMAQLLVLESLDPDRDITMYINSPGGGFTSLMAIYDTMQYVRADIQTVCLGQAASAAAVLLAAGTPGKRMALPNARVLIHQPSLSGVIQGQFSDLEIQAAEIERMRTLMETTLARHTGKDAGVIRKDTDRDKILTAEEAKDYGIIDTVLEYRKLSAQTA

Toxoplasma: 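Assay of Toxoplasma gondii numbers, read through their beta-galactosidase reporter with a colour substrate. Compounds at 10 µM. The record gives no direction; the compounds picked for IC50 retests had high values, so higher reads as fewer parasites. About 67,000 compounds were tested under these conditions; 0.38% (about 260) showed 50% or more at least once.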
ClpP1P2: 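ClpP1P2, Mycobacterium tuberculosis (UniProt P9WPC5 and UniProt P9WPC3). Protease assay of ClpP1P2, read by the AMC dye that it sets free. Concentration: 50 µM. Higher reads as stronger inhibition, judged from the few compounds that gave an IC50. Most other retested compounds had strongly negative values. Size under these conditions: about 69,000 compounds, about 10 of them at 50% or above in at least one test.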
Leishmania in macrophages: 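Cell assay of Leishmania donovani living inside macrophages; the read-out is not stated. Tested at 30 µM. Direction is inferred from retests: higher values go with stronger inhibition. Of about 69,000 compounds tested this way, about 1,000 (1.5%) reached 50% or more in at least one test.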
T. brucei: 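Whole-parasite assay of Trypanosoma brucei over 72 hours; the read-out is not stated. Concentration: 30 µM. The record gives no direction; compounds that gave an IC50 in retests scored well above the rest, so higher reads as stronger inhibition. Values scatter widely below zero; nearly all retest evidence comes from the higher of the two concentrations used. About 64,000 compounds were tested under these conditions; 1.5% (about 940) showed 50% or more at least once.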

Results are given as percent effect. The record does not define 0% and 100%; most values in the screen are far below 50% and negative numbers occur (in some assays of this library far below -100). Compounds were drawn at random from those tested, without regard to their results. Two or more numbers in one place are separate tests of the same structure; such repeats can differ widely.

NC(=O)c1ccc(C2CCCNC2)nc1 (stereo not shown) read ClpP1P2: -10.93%. O=C(c1ncncc1Cl)N1CCC2(CCCC2)CC1 read Toxoplasma: 0.8403%; ClpP1P2: -2.076%; Leishmania in macrophages: 22.43%; T. brucei: -49.97%. With CC1(CNC(=O)NCc2ccsc2)CCCS1 (stereo not shown) the screen gave Toxoplasma: -2.927%; ClpP1P2: -5.359%; Leishmania in macrophages: 31.25%; T. brucei: -19.54%. CCN1CCC(CC(=O)NCCc2nc(O)cc(O)n2)CC1 gave Toxoplasma: 14.58%; ClpP1P2: 7.716%; Leishmania in macrophages: -12.04%; T. brucei: -52.78%. [H][C@]12CN(c3ncccn3)C[C@@]1([H])S(=O)(=O)CC[C@H]2C(=O)N1CCOCC1 gave Toxoplasma: 1.41%; Leishmania in macrophages: 31.73%; T. brucei: -11.19%. CCOC(=O)CCNC(=O)N1CCOC(Cc2cccc(OC)c2)C1 (stereo not shown) read Toxoplasma: 1.731%; ClpP1P2: -4.311%; Leishmania in macrophages: -12.29%; T. brucei: -33.09%. CCOCC1CN(c2ncc(F)cn2)Cc2cn(CC)nc21 (stereo not shown) read Toxoplasma: -16.3%; ClpP1P2: -0.1497%; Leishmania in macrophages: 29.6%.

CN1C(=O)C(c2ccccc2)CC12CCN(CCO)CC2.O=C(O)C(F)(F)F (stereo not shown) gave Toxoplasma: 10.96%; Leishmania in macrophages: 12.64%; T. brucei: -15.99%. With Cc1noc(C)c1CN1CCc2ncnc(-c3ccccc3)c2CC1 the screen gave ClpP1P2: -8.269%. With CN(C)c1ccc(CNCc2cnc(N3CCOCC3)nc2)cn1.Cl the screen gave Toxoplasma: 1.53%; Leishmania in macrophages: 11.69%; T. brucei: 28.52%. With O=C(C1CCCC1)N1CCC2(CC1)OCCO2 the screen gave Toxoplasma: -5.589%; ClpP1P2: -4.882%; Leishmania in macrophages: 39.62%; T. brucei: -2.18%. Cc1cc(CN2CCC(N(C)Cc3noc(C4CC4)n3)C2)no1 (stereo not shown) gave Toxoplasma: -0.8309%; ClpP1P2: 20.33%; Leishmania in macrophages: -9.941%; T. brucei: -15.53%. Cc1ccc(C(=O)N2C[C@H](NS(C)(=O)=O)[C@@H](C(C)C)C2)cc1F gave Toxoplasma: -8.862%; ClpP1P2: -8.579%; Leishmania in macrophages: 1.999%; T. brucei: -2.316%. For CC(C)c1nc(C2CCCN(c3nccc(C(F)(F)F)n3)C2)no1 (stereo not shown) the result was Toxoplasma: -7.571%; ClpP1P2: -7.887%; Leishmania in macrophages: -4.623%; T. brucei: -28.91%.

CCN(Cc1ccc2c(c1)OCO2)C(=O)NC(C)Cn1ccnc1 (stereo not shown) gave Toxoplasma: -12.37%; ClpP1P2: -27.54%; Leishmania in macrophages: -13.69%; T. brucei: -17.89%. CC(C)N(C(=O)c1ccccc1-c1nc2c([nH]1)CCNC2)C(C)C gave Toxoplasma: 3.192%; ClpP1P2: 13.4%; Leishmania in macrophages: 6.576%; T. brucei: -21.51%. Result for CN(c1ccncn1)C1CC2(CCN(C(=O)Cc3cccs3)C2)C1 (stereo not shown) was Toxoplasma: 6.866%; ClpP1P2: -5.01%; Leishmania in macrophages: 8.138% and 13.08%; T. brucei: -10.04%. O=C(CCNC(=O)C1=Cc2ccccc2OC1)Nc1cccnc1 gave Toxoplasma: 10.05%; ClpP1P2: 3.863%; Leishmania in macrophages: 17.62%; T. brucei: -30.11%. c1ccc(-c2nnc([C@H]3CCN(C4CCOCC4)C3)o2)cc1 read Toxoplasma: 13.44%; ClpP1P2: -4.117%; Leishmania in macrophages: 42.01%; T. brucei: -1.301%. Result for Cc1nc(C2CCNC2)nc2c1CCC(=O)N2C.Cl (stereo not shown) was Toxoplasma: -32.21%; Leishmania in macrophages: 18.99%; T. brucei: -29.3%. Result for Cc1nc(CN(C)C2CCN(CCc3cccs3)C2)no1 (stereo not shown) was Toxoplasma: 18.73%; ClpP1P2: -5.305%; Leishmania in macrophages: -0.1841%.

With CCN1CC2(CCC1=O)CCN(Cc1nncn1C)CC2 the screen gave Toxoplasma: 2.055%; ClpP1P2: 1.601%; Leishmania in macrophages: 24.28%; T. brucei: -16.81%. CCOCC(=O)Nc1cc(-n2nnnc2C2CC2)ccc1F gave Toxoplasma: 1.189%; ClpP1P2: -6.97%; Leishmania in macrophages: 2.968%; T. brucei: -55.39%. Cc1ccc(C(=O)Nc2c(C(=O)N(C)C)nn(C)c2C)cc1 gave Toxoplasma: 18.52%; ClpP1P2: -0.7519%; Leishmania in macrophages: -0.0647%; T. brucei: -13.71%. COCCN1C(=O)CCC12CCCN(Cc1nccs1)CC2.O=C(O)C(F)(F)F (stereo not shown) read Toxoplasma: -5.059%; Leishmania in macrophages: -3.195%; T. brucei: -28.97%. For Cn1nc(C(=O)NN2CCOCC2)c(Cl)c1C(F)(F)F the result was Toxoplasma: 0%; ClpP1P2: -19.33%; Leishmania in macrophages: 1.565%; T. brucei: 13.38%. CC1CCN(CCNC(=O)C2CCN(C(=O)C3CC3)CC2)CC1 read Toxoplasma: -1.011%; ClpP1P2: -2.067%; Leishmania in macrophages: 23.94%; T. brucei: -25.92%. Cc1nn(C)c2nc(C3CC3)c(Cl)c(C(=O)O)c12 read Toxoplasma: -12.84%; ClpP1P2: -8.017%; Leishmania in macrophages: 15.51%; T. brucei: -1.362%.

With Cc1nc(NCc2ccc(F)cc2)cc(C(=O)N2CCOCC2)n1 the screen gave Toxoplasma: 6.591%; ClpP1P2: -0.9332%; Leishmania in macrophages: 32.39%. CNC(=O)C1Cn2ccnc2C2(CCN(Cc3nccs3)CC2)O1.O=C(O)C(F)(F)F.O=C(O)C(F)(F)F (stereo not shown) gave Toxoplasma: -6.495%; Leishmania in macrophages: -6.05%; T. brucei: -354.1%. With COCCn1cc(CCC(=O)Nc2c(C)nn(C)c2C)c2ccccc21 the screen gave Toxoplasma: 2.47%; ClpP1P2: 15.51%; Leishmania in macrophages: -5.699%. Result for CC1COCCN1Cc1nc(-c2cccc(Br)c2)no1 (stereo not shown) was Toxoplasma: -0.4021%; ClpP1P2: 14.03%; Leishmania in macrophages: 1.318%; T. brucei: -106.3%. With CN(C)C(=O)C1CN(Cc2cccs2)CCN(S(C)(=O)=O)C1 (stereo not shown) the screen gave Toxoplasma: -0.5837%; ClpP1P2: -13%; Leishmania in macrophages: 4.72%; T. brucei: 7.686%.

The last 3 entries again:

Result for COCCn1cc(CCC(=O)Nc2c(C)nn(C)c2C)c2ccccc21 was Toxoplasma: 2.47%; ClpP1P2: 15.51%; Leishmania in macrophages: -5.699%.
Result for CC1COCCN1Cc1nc(-c2cccc(Br)c2)no1 (stereo not shown) was Toxoplasma: -0.4021%; ClpP1P2: 14.03%; Leishmania in macrophages: 1.318%; T. brucei: -106.3%.
Result for CN(C)C(=O)C1CN(Cc2cccs2)CCN(S(C)(=O)=O)C1 (stereo not shown) was Toxoplasma: -0.5837%; ClpP1P2: -13%; Leishmania in macrophages: 4.72%; T. brucei: 7.686%.

From ChEMBL document CHEMBL3988442, “University of Dundee, Small-Polar-MMV Screening Library” (2021).